Measured values published in paper PMC9482638.

By UniProt entry, the sequences of proteins in these tests, tags left out. Where a name states a change or a piece, a line headed by the entry shows the natural chain unless it says otherwise. Chains listed by the source or under a name are the forms on record and can include a tag or linker.
BioID2-NRAS^G12V (P01111, form named): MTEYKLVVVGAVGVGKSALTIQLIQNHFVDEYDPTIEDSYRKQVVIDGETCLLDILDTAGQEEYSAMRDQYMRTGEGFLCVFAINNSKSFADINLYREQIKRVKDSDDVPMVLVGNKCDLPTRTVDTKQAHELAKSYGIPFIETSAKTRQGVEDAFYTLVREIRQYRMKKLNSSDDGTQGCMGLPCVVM
UniProt P84077: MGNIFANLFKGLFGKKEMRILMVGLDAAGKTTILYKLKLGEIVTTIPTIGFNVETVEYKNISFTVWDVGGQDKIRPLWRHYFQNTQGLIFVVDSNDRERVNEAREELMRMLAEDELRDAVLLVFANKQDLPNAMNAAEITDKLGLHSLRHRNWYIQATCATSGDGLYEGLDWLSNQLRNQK

Experiments:
BioID2-KRAS^G12V = BioID2-KRAS^G12V (UniProt P01116); experiment: proximity labelling; BioID2-KRAS^G12V in RPMI 8226 and XG2, BioID2-NRAS^G12V in SKMM1 and L363; 50 uM biotin 16 h; modified RIPA lysis; streptavidin agarose pulldown; SILAC-MS; enrichment relative to BioID2 alone (empty vector)
BioID2-NRAS^G12V = BioID2-NRAS^G12V (UniProt P01111); experiment: as above

| binding (BioID2-KRAS^G12V) | binding (BioID2-NRAS^G12V) | Substance |
| --- | --- | --- |
| binds | binds | ARF1 (endogenous) (from UniProt P84077 1-181) |
| binds | binds | LAMTOR3 (endogenous) (from UniProt Q9UHA4 1-124) |
| binds | binds | RRAGC (endogenous) (from UniProt Q9HB90 1-399) |
|  | binds | SLC3A2 (endogenous) (from UniProt P08195 1-529) |

These are yes or no findings as the source states them, for the method shown. Binding seen in cells or lysates may run through a third protein. Here binding means that the protein was enriched with, or labelled near, the bait; the list need not be complete.
